From the supplement of paper PMC7661543
Differences between knockout arms are mostly noise.

Tested on: SKBR3
Assay: relative cell number vs DMSO control (72 h) (% of DMSO); higher = less growth inhibition (more cells)
Protocol: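 QMAP-Seq: a pool of 5 breast cancer cell lines (ZR-75-1, SKBR3, HCC-38, MDA-MB-231, BT-20), each carrying 12 doxycycline-inducible Cas9 sgRNA perturbations (11 knockouts plus non-targeting sgNT), was treated with compounds for 72 h at four 10-fold doses (10 nM-10 uM or 1 nM-1 uM range). Barcodes were amplified and sequenced, and cell number was interpolated from 293T spike-in standard curves. The result is expressed as % of the median of DMSO wells. Two biological replicates.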

COc1cc2nccc(Oc3ccc(NC(=O)C4(C(=O)Nc5ccc(F)cc5)CC4)cc3)c2cc1OC [Cabozantinib]
Conditions | relative cell number
sgRNA knockout: sgATF3, 10 nM | 129.2
sgRNA knockout: sgATF3, 100 nM | 96.3
sgRNA knockout: sgATF3, 1000 nM | 102
sgRNA knockout: sgATF3, 10000 nM | 55.1
sgRNA knockout: sgATF4, 10 nM | 101
sgRNA knockout: sgATF4, 100 nM | 104
sgRNA knockout: sgATF4, 1000 nM | 85
sgRNA knockout: sgATF4, 10000 nM | 55.6
sgRNA knockout: sgATF6, 10 nM | 99.4
sgRNA knockout: sgATF6, 100 nM | 83.6
sgRNA knockout: sgATF6, 1000 nM | 83.7
sgRNA knockout: sgATF6, 10000 nM | 57.5
sgRNA knockout: sgATG7, 10 nM | 119
sgRNA knockout: sgATG7, 100 nM | 102
sgRNA knockout: sgATG7, 1000 nM | 104
sgRNA knockout: sgATG7, 10000 nM | 47.5
sgRNA knockout: sgERN1, 10 nM | 128
sgRNA knockout: sgERN1, 100 nM | 107
sgRNA knockout: sgERN1, 1000 nM | 109
sgRNA knockout: sgERN1, 10000 nM | 55
sgRNA knockout: sgHSF1, 10 nM | 101
sgRNA knockout: sgHSF1, 100 nM | 76.5
sgRNA knockout: sgHSF1, 1000 nM | 73.397
sgRNA knockout: sgHSF1, 10000 nM | 51.7
sgRNA knockout: sgHSF2, 10 nM | 89.1
sgRNA knockout: sgHSF2, 100 nM | 88
sgRNA knockout: sgHSF2, 1000 nM | 82.4
sgRNA knockout: sgHSF2, 10000 nM | 59.4
sgRNA knockout: sgKEAP1, 10 nM | 98.7
sgRNA knockout: sgKEAP1, 100 nM | 103
sgRNA knockout: sgKEAP1, 1000 nM | 81.8
sgRNA knockout: sgKEAP1, 10000 nM | 51.1
sgRNA knockout: sgNFE2L2, 10 nM | 105
sgRNA knockout: sgNFE2L2, 100 nM | 86.6
sgRNA knockout: sgNFE2L2, 1000 nM | 93.3
sgRNA knockout: sgNFE2L2, 10000 nM | 63.9
sgRNA knockout: sgSLC35F2, 10 nM | 89.2
sgRNA knockout: sgSLC35F2, 100 nM | 79.2
sgRNA knockout: sgSLC35F2, 1000 nM | 94.8
sgRNA knockout: sgSLC35F2, 10000 nM | 57.7
sgRNA knockout: sgXBP1, 10 nM | 111
sgRNA knockout: sgXBP1, 100 nM | 113.4
sgRNA knockout: sgXBP1, 1000 nM | 80
sgRNA knockout: sgXBP1, 10000 nM | 44.8

CC(C)C[C@H](NC(=O)[C@H](CCc1ccccc1)NC(=O)CN1CCOCC1)C(=O)N[C@@H](Cc1ccccc1)C(=O)N[C@@H](CC(C)C)C(=O)[C@@]1(C)CO1 [Carfilzomib]
Conditions | relative cell number
sgRNA knockout: sgATF3, 1 nM | 79.6
sgRNA knockout: sgATF3, 10 nM | 33.2
sgRNA knockout: sgATF3, 100 nM | 20.5
sgRNA knockout: sgATF3, 1000 nM | 9.76
sgRNA knockout: sgATF4, 1 nM | 87.3
sgRNA knockout: sgATF4, 10 nM | 35.6
sgRNA knockout: sgATF4, 100 nM | 14.6
sgRNA knockout: sgATF4, 1000 nM | 7.09
sgRNA knockout: sgATF6, 1 nM | 83.3
sgRNA knockout: sgATF6, 10 nM | 27.4
sgRNA knockout: sgATF6, 100 nM | 12
sgRNA knockout: sgATF6, 1000 nM | 4.57
sgRNA knockout: sgATG7, 1 nM | 75.5
sgRNA knockout: sgATG7, 10 nM | 36.8
sgRNA knockout: sgATG7, 100 nM | 15.2
sgRNA knockout: sgATG7, 1000 nM | 8.26
sgRNA knockout: sgERN1, 1 nM | 80.6
sgRNA knockout: sgERN1, 10 nM | 27.2
sgRNA knockout: sgERN1, 100 nM | 14.7
sgRNA knockout: sgERN1, 1000 nM | 5.05
sgRNA knockout: sgHSF1, 1 nM | 83
sgRNA knockout: sgHSF1, 10 nM | 32.8
sgRNA knockout: sgHSF1, 100 nM | 13.2
sgRNA knockout: sgHSF1, 1000 nM | 9.52
sgRNA knockout: sgHSF2, 1 nM | 92.1
sgRNA knockout: sgHSF2, 10 nM | 36.3
sgRNA knockout: sgHSF2, 100 nM | 13.4
sgRNA knockout: sgHSF2, 1000 nM | 5.95
sgRNA knockout: sgKEAP1, 1 nM | 69.1
sgRNA knockout: sgKEAP1, 10 nM | 29.7
sgRNA knockout: sgKEAP1, 100 nM | 10.8
sgRNA knockout: sgKEAP1, 1000 nM | 6.1
sgRNA knockout: sgNFE2L2, 1 nM | 66.9
sgRNA knockout: sgNFE2L2, 10 nM | 32.3
sgRNA knockout: sgNFE2L2, 100 nM | 13.3
sgRNA knockout: sgNFE2L2, 1000 nM | 4.91
sgRNA knockout: sgSLC35F2, 1 nM | 79.1
sgRNA knockout: sgSLC35F2, 10 nM | 43.5
sgRNA knockout: sgSLC35F2, 100 nM | 13.9
sgRNA knockout: sgSLC35F2, 1000 nM | 4.33
sgRNA knockout: sgXBP1, 1 nM | 79.2
sgRNA knockout: sgXBP1, 10 nM | 29.4
sgRNA knockout: sgXBP1, 100 nM | 11.1
sgRNA knockout: sgXBP1, 1000 nM | 8.01
